Measurements: PubChem BioAssay (NCATS)
This list was built around the results that the source calls inconclusive (neither active nor inactive); the mix of calls is not that of the screen. Where the call is inconclusive, the potency comes from a doubtful curve fit. Active and inactive are the calls of the source. Calls follow the shape of the dose curve; as a rule, active = well fitted activation curve with a large enough effect; inconclusive = small, poorly fitted or top-dose-only effect; inactive = flat fitted curve, though single readings scatter.

Assay: Validation screen for small molecules that induce DNA re-replication in SW480 colon adenocarcinoma cells (AID 504364); as to activity (re-replication induction): 0% is about no effect
Conditions: DNA re-replication phenotype (high-content imaging); series mostly up to 46.1 µM; activity (re-replication induction): at the top concentration
Method in brief: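 Cells are treated 48 hr with test compound, stained 40 min with Hoechst at 37 C, and scanned for nuclear fluorescence; compounds inducing re-replication increase nuclei with elevated intensity.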
Potency is read from the fitted curve at half-maximal effect.

SMILES | Potency | activity (re-replication induction)
Fc1ccc(C(OCCN2CCN(CCCc3ccccc3)CC2)c2ccc(F)cc2)cc1 | inconclusive: 29.1 µM [activator, single point] | –
N#CC(C#N)=Cc1cc(O)c(O)c(O)c1 | inconclusive: 20.6 µM [activator, single point] | –
CN1C[C@H](CNC(=O)OCc2ccccc2)C[C@@H]2c3cccc4c3c(cn4C)C[C@H]21 | inconclusive: 25.9 µM [activator, single point] | –
c1ccc(CCCN2CCN(CCOC(c3ccccc3)c3ccccc3)CC2)cc1 | inconclusive: 18.4 µM [activator, single point] | –
CC(C)NP(=O)(NC(C)C)OP(=O)(NC(C)C)NC(C)C | inconclusive: 23.1 µM [activator, single point] | –
O=c1c2ccccc2[se]n1-c1ccccc1 | inconclusive: 32.6 µM [activator, partial curve, poor fit] | –
COc1ccc2c(c[n+](C)c3c4cc5c(cc4ccc23)OCO5)c1OC | inconclusive: 2.06 µM [activator, partial curve, poor fit] | –
O=C(O)c1nn(Cc2ccc(Cl)cc2Cl)c2ccccc12 | – | inactive: -12.1%
C=C(C)[C@H]1Cc2c(ccc3c2O[C@@H]2COc4cc(OC)c(OC)cc4[C@@H]2C3=O)O1 | active: 0.92 µM | –
NCC(CC(=O)O)c1ccc(Cl)cc1 (stereo unspecified) | – | inactive: 8.47%
COc1cc(C(O)CN)ccc1O (stereo unspecified) | – | inactive: -7.25%

Copied from the entries so far, two compounds:
SMILES | Potency | activity (re-replication induction)
NCC(CC(=O)O)c1ccc(Cl)cc1 (stereo unspecified) | – | inactive: 8.47%
COc1cc(C(O)CN)ccc1O (stereo unspecified) | – | inactive: -7.25%
